The supplement of paper PMC7666118
This is one part of the list.

Amino acid sequences for entries named in this document (tags omitted). A change or cut given only in a name is not applied to a line headed by its entry.
UniProt Q9BXR0: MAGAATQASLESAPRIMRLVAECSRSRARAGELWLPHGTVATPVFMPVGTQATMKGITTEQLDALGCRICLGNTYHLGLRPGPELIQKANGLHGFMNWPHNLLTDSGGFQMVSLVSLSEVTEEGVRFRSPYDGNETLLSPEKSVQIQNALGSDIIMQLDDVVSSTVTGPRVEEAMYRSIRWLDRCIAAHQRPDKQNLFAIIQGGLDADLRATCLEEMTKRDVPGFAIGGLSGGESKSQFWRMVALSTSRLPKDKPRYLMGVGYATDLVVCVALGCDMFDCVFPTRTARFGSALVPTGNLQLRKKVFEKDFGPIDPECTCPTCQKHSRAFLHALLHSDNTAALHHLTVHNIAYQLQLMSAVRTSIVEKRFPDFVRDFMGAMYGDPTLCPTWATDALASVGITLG
UniProt Q9P2R6: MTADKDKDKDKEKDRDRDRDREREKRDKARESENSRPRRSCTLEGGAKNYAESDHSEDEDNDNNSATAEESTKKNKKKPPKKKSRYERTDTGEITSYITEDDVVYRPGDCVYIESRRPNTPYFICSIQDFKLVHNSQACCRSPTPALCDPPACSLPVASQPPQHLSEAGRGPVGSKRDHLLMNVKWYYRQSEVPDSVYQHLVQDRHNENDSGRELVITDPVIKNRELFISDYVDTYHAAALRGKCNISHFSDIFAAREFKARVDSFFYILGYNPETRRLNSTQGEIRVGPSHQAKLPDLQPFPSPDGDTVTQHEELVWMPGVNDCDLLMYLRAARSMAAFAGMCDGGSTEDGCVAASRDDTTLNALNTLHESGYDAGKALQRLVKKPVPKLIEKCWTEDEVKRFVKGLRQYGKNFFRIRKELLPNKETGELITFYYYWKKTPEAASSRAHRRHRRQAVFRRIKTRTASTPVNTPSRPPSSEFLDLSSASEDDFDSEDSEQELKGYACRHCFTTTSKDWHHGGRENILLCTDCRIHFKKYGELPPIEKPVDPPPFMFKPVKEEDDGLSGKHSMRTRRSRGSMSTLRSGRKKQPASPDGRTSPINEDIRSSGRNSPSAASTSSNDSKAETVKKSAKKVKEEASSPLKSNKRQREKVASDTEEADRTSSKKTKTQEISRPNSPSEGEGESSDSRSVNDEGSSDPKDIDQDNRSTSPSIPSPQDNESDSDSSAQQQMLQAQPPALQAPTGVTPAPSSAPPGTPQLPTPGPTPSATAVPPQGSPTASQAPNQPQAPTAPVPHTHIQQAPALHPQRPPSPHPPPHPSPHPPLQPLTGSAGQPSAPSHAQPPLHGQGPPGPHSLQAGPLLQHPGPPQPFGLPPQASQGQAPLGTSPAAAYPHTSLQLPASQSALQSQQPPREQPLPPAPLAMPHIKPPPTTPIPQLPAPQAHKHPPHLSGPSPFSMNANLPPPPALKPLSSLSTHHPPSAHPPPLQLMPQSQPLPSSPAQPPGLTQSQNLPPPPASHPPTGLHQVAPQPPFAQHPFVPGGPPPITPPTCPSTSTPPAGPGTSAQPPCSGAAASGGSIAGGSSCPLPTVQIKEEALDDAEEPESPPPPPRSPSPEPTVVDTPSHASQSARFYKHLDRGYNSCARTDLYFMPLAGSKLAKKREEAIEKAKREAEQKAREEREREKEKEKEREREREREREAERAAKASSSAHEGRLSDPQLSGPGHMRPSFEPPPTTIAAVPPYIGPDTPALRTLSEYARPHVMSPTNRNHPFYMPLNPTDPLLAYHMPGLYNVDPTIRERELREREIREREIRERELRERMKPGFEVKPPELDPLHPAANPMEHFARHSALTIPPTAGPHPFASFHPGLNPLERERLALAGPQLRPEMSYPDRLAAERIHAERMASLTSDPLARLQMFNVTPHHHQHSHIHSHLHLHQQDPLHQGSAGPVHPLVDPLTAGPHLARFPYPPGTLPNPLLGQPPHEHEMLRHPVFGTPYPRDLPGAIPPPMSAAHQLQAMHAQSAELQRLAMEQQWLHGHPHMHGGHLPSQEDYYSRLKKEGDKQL
UniProt Q5T8P6: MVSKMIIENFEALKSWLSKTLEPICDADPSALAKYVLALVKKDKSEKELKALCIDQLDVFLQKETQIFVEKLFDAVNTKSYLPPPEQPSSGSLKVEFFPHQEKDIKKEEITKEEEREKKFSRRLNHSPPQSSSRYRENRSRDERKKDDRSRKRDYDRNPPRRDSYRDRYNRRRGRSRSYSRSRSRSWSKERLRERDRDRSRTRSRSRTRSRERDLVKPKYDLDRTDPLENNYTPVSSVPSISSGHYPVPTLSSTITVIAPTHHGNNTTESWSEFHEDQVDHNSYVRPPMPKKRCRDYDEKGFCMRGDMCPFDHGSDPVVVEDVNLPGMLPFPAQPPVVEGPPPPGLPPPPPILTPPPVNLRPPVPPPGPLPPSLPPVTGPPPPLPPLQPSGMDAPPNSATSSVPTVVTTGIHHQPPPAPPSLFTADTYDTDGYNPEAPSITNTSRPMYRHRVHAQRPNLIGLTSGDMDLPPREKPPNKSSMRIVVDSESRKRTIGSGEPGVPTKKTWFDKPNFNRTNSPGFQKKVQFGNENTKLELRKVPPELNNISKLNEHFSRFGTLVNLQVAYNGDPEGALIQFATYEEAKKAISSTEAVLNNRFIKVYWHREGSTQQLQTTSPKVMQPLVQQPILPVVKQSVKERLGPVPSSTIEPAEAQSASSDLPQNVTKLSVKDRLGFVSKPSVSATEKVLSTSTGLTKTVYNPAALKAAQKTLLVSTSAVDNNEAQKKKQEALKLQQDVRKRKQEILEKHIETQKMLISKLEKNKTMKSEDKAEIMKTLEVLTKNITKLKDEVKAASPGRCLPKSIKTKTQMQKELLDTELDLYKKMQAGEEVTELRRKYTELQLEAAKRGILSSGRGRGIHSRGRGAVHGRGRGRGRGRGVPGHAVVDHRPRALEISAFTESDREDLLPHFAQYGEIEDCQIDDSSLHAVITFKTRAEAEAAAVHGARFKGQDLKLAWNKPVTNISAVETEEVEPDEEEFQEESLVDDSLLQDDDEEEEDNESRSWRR
UniProt O94822: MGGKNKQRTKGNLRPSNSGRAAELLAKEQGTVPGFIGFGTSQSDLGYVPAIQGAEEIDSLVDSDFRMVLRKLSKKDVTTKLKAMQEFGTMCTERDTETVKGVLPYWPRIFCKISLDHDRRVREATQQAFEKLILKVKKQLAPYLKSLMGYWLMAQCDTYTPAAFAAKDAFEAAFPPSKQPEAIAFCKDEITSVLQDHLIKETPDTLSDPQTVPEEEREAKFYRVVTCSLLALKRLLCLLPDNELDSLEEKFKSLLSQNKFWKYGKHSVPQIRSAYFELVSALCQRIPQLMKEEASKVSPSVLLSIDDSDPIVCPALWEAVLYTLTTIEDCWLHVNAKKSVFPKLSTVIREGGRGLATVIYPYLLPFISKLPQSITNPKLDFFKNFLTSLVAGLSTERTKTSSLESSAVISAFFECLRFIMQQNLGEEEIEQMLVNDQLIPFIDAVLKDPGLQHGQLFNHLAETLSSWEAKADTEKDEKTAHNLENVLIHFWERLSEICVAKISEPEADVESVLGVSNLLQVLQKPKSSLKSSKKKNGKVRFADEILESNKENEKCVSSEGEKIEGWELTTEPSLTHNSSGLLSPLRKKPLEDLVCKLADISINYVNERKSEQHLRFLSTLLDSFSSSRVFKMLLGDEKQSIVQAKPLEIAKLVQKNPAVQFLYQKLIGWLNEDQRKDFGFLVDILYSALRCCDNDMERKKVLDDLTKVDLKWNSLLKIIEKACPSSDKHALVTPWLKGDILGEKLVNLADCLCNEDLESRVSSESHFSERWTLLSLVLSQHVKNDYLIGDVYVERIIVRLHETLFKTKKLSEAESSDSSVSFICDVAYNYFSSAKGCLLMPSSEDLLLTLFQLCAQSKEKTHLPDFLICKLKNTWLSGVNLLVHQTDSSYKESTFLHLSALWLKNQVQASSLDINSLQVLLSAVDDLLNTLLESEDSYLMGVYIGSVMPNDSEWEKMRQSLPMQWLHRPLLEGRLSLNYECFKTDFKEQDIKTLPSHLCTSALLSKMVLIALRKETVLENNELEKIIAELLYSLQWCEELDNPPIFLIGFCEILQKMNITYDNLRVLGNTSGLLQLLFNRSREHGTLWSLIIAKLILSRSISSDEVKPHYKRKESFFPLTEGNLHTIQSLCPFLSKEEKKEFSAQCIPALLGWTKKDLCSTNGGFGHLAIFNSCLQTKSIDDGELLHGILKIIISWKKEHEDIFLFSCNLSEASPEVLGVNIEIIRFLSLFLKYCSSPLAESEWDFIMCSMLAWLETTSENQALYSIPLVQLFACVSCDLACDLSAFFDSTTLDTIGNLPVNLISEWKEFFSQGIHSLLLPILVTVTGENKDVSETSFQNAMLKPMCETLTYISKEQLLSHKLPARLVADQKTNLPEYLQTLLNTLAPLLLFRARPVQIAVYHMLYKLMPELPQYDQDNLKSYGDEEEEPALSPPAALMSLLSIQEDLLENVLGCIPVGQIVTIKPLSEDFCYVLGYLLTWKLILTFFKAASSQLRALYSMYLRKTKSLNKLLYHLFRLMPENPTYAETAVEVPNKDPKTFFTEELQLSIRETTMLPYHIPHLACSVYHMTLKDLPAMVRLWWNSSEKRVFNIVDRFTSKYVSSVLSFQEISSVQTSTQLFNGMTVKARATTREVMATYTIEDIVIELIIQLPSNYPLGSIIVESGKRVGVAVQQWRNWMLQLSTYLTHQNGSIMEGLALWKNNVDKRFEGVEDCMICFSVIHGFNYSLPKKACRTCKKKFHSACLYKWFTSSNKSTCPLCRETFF
UniProt P49023, whole entry: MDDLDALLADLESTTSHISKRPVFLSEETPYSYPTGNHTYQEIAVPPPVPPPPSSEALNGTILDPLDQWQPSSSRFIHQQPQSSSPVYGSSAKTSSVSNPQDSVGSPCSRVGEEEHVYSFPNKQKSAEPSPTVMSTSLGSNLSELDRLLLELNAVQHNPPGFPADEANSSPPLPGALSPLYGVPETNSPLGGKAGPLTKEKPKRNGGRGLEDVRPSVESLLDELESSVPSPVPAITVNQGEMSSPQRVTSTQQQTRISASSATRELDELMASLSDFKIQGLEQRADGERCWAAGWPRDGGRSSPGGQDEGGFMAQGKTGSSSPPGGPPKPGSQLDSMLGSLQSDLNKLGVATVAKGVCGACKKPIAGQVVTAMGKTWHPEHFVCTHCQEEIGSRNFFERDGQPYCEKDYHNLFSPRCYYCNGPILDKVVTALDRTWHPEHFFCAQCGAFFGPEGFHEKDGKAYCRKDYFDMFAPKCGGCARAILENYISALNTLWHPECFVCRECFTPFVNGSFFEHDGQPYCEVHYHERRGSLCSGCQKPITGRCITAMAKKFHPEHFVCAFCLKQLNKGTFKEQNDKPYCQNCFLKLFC
UniProt P78332: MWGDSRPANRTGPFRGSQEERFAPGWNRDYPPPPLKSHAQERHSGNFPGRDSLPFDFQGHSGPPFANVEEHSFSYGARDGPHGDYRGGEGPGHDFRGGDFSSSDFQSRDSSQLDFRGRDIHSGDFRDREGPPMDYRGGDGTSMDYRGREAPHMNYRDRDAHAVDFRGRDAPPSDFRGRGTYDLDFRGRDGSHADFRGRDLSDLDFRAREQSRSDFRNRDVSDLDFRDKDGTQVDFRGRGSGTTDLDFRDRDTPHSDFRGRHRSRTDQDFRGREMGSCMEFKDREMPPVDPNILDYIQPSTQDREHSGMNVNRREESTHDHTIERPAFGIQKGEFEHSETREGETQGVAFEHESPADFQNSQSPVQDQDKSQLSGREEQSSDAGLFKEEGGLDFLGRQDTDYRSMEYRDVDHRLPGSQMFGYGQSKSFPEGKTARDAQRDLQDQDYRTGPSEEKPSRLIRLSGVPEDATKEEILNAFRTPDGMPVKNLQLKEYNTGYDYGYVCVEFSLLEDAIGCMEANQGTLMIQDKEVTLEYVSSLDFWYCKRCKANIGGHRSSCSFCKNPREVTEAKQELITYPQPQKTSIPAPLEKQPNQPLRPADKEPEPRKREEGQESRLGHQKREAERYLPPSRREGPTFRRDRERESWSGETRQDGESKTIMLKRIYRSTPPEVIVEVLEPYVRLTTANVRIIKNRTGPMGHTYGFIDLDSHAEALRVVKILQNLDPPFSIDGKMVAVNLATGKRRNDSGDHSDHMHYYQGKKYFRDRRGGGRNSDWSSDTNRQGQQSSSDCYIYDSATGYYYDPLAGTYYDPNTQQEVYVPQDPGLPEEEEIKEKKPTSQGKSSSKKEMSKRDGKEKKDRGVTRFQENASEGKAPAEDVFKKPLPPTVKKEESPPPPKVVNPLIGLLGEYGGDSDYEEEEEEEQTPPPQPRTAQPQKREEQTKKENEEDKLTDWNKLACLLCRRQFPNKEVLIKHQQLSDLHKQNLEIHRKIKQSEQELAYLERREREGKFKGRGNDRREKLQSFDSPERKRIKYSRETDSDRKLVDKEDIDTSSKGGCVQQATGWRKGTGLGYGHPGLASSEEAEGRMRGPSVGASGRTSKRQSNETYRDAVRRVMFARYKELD

Compound: COc1ccc(Cn2ccc3cc(C)c(C(=O)NO)cc32)cc1
Assay: dose-dependent thermal stabilisation call (2D-TPP, DLPTP, 10% FDR) (binary (1 = stabilised)); higher = stabilised by the compound
Conditions: system: HL-60 intact cells; concentration range 0.04-10 µM
Procedure: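 2D thermal proteome profiling in intact HL-60 cells treated with BRD-3811 (0, 0.04, 0.29, 2, 10 uM) for 90 min at 37 C, then heated 3 min at one of 12 temperatures (42-63.9 C). Soluble protein was quantified by TMT10 MS. The value is the DLPTP call of the paper: dose-dependent thermal stabilisation over all temperatures at 10% FDR (F-test of a dose-response against a flat model); one experiment, one call per tested protein.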

| Target | dose-dependent thermal stabilisation call |
| --- | --- |
| RFK (UniProt Q969G6) | inactive: 0 |
| RAB3GAP (UniProt Q15042) | inactive: 0 |
| RCL1 (UniProt Q9Y2P8) | inactive: 0 |
| RBM8A (UniProt Q9Y5S9) | inactive: 0 |
| QDPR (UniProt P09417) | inactive: 0 |
| QTRT1 (UniProt Q9BXR0) | inactive: 0 |
| RNF126 (UniProt Q9BV68) | inactive: 0 |
| PUF60 (UniProt Q9UHX1) | inactive: 0 |
| RAB10 (UniProt P61026) | inactive: 0 |
| RAB4A (UniProt P20338) | inactive: 0 |
| RASAL2 (UniProt Q9UJF2) | inactive: 0 |
| RBM15 (UniProt Q96T37) | inactive: 0 |
| QRICH1 (UniProt Q2TAL8) | inactive: 0 |
| RAD51 (UniProt Q06609) | inactive: 0 |
| QKI (UniProt Q96PU8) | inactive: 0 |
| PYROXD1 (UniProt Q8WU10) | inactive: 0 |
| RFX5 (UniProt P48382) | inactive: 0 |
| PYCR2 (UniProt Q96C36) | inactive: 0 |
| RAB43 (UniProt Q86YS6) | inactive: 0 |
| RERE (UniProt Q9P2R6) | inactive: 0 |
| RBM22 (UniProt Q9NW64) | inactive: 0 |
| RASA2 (UniProt Q15283) | inactive: 0 |
| PWP2 (UniProt Q15269) | inactive: 0 |

| Target | dose-dependent thermal stabilisation call |
| --- | --- |
| RFC1 (UniProt P35251) | inactive: 0 |
| RAD23B (UniProt P54727) | inactive: 0 |
| RAP2B (UniProt P61225) | inactive: 0 |
| RAB21 (UniProt Q9UL25) | inactive: 0 |
| RNF13 (UniProt O43567) | inactive: 0 |
| RAPGEF2 (UniProt Q9Y4G8) | inactive: 0 |
| RBM26 (UniProt Q5T8P6) | inactive: 0 |
| RNF160 (UniProt O94822) | inactive: 0 |
| RABGEF1 (UniProt Q9UJ41) | inactive: 0 |
| RECQL (UniProt P46063) | inactive: 0 |
| RBMX (UniProt P38159) | inactive: 0 |
| RASGRP2 (UniProt Q7LDG7) | inactive: 0 |
| PXN (UniProt P49023) | inactive: 0 |
| RBBP4 (UniProt Q09028) | inactive: 0 |
| RAB33A (UniProt Q14088) | inactive: 0 |
| RFTN1 (UniProt Q14699) | inactive: 0 |
| RBM6 (UniProt P78332) | inactive: 0 |
| PYCARD (UniProt Q9ULZ3) | inactive: 0 |
| RAB37 (UniProt Q96AX2) | inactive: 0 |
| RDBP (UniProt P18615) | inactive: 0 |
| PTRH2 (UniProt Q9Y3E5) | inactive: 0 |
| RHOXF2 (UniProt Q9BQY4) | inactive: 0 |

Reprinted at random: two entries already listed.

| Target | dose-dependent thermal stabilisation call |
| --- | --- |
| RABGEF1 (UniProt Q9UJ41) | inactive: 0 |
| RHOXF2 (UniProt Q9BQY4) | inactive: 0 |
